One molecule from publication PMC5347692, “Serpin E2 promotes breast cancer metastasis by remodeling the tumor matrix and polarizing tumor associated macrophages” (Oncotarget, 2016) can be followed below.

Sequences of proteins named here, by UniProt entry; tags and fusion partners are left off. Residues count along the entry.
UniProt P00750, residues 36-562: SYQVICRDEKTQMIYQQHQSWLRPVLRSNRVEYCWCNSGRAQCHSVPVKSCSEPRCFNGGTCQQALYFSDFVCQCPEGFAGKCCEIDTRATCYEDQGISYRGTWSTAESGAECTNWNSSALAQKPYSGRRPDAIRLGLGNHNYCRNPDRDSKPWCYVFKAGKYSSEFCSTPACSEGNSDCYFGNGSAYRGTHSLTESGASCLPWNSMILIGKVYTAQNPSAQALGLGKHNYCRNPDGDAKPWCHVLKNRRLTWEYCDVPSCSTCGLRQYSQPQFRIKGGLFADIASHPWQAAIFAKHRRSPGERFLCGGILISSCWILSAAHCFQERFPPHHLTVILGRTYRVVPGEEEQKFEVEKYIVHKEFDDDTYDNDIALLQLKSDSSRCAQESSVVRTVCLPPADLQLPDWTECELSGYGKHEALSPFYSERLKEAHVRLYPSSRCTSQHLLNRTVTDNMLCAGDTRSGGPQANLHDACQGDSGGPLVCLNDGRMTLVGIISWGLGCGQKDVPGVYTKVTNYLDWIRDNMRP

These are yes or no findings as the source states them, for the method shown. Some binding calls cover weakened binding; strength is not graded here.

This experiment concerns the target recombinant tPA (in the rodent serpinE2/tPA complex) (UniProt P00750). Description: SDS-stable complex seen by western blot; recombinant serpinE2 and tPA bound to each other beforehand, complex immunoprecipitated with Ab11 and Protein G, western blot with a serpinE2-specific antibody; complex band above uncomplexed serpinE2; both purified.

B1: rodent recombinant serpinE2 (protein, UniProt P07092 20-397)
chain: SQLNSLSLEELGSDTGIQVFNQIIKSQPHENVVISPHGIASILGMLQLGADGRTKKQLSTVMRYNVNGVGKVLKKINKAIVSKKNKDIVTVANAVFVRNGFKVEVPFAARNKEVFQCEVQSVNFQDPASACDAINFWVKNETRGMIDNLLSPNLIDSALTKLVLVNAVYFKGLWKSRFQPENTKKRTFVAGDGKSYQVPMLAQLSVFRSGSTKTPNGLWYNFIELPYHGESISMLIALPTESSTPLSAIIPHISTKTINSWMNTMVPKRMQLVLPKFTALAQTDLKEPLKALGITEMFEPSKANFAKITRSESLHVSHILQKAKIEVSEDGTKAAVVTTAILIARSSPPWFIVDRPFLFCIRHNPTGAILFLGQVNKP
Take B1: the binding result is given as “binds”.
